Test results reported in paper PMC6504076, “An in vivo half-life extended prolactin receptor antagonist can prevent STAT5 phosphorylation” (PLoS ONE, 2019).
These are yes or no findings as the source states them, for the method shown. Tags and fused reporters may be left off the sequences shown.

Target: prolactin receptor antagonist PrlRA (human) (UniProt P01236)
Assay: SEC; Superdex 75 increase 5/150 GL, PBS, 0.45 mL/min, native conditions; both purified

B1: prolactin receptor antagonist PrlRA (ligand, human)
chain: MGSSRSQVTLRDLFDRAVVLSHYIHNLASEMFSEFDKRYTHGRGFITKAINSCHTSSLATPEDKEQALQMNQKDFLSLIVSILRSWNEPLYHLVTEVRGMQEAPEAILSKAVEIEEQTKRLLERMELIVSQVHPETKENEIYPVWSGLPSLQMADEESRLSAYYNLLHCLRRDSHKIDNYLKLLRCRIIHNNNC
In the case of B1, the binding is reported as “no binding”.
